Source: PubChem BioAssay AID212 (DTP/NCI, 2004)
The list shows only some results of the screen, not a fair sample: it gathers tests that were run many times, whatever their T/C, doses with no T/C, and many T/C values between a quarter and a half above the control. Other doses and runs of a compound stand elsewhere. T/C gives the treated animals as a percentage of the vehicle group. Schedule codes are those of the source, taken here to give the interval after Q, in days (D) or hours (H), and the number of doses after X. Some doses were run more than once; the values are given in rising order. Some T/C values are followed by the survivors on the day toxicity was checked, most often the fifth; where none is given, no animal had died by that day. Some entries give survivors of the animals treated and no T/C: the source holds a T/C of zero for them, seemingly a mark for toxic or unscored doses. Counts of survivors are from the toxicity check (mostly the fifth day) where no day follows; animals may have died later.

Tested on: BDF1 mice, colon carcinoma 38 sc, T/C %
Test: NCI In Vivo Anticancer Drug Screen. Data for tumor model Colon Carcinoma 38 (subcutaneous) in B6D2F1 (BDF1) mice
Settings: T/C endpoint: median tumor weight (est.), schedule: Q07DX002 (ip), higher T/C = larger tumour; for T/C: evaluated on day 20
Summary of the method: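 T/C readout: treated group (T) measurement over vehicle control group (C) measurement. Endpoint is survival or tumor size in mice bearing a transplanted tumor.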

[1] = dose: 25.0 mg/kg/injection, vehicle: saline with Tween-80
[2] = dose: 50.0 mg/kg/injection, vehicle: saline with Tween-80
[3] = dose: 100.0 mg/kg/injection, vehicle: saline with Tween-80
[4] = dose: 200.0 mg/kg/injection, vehicle: saline with Tween-80
[5] = dose: 400.0 mg/kg/injection, vehicle: saline with Tween-80
[6] = dose: 800.0 mg/kg/injection, vehicle: saline with Tween-80
[7] = dose: 12.5 mg/kg/injection, vehicle: saline with Tween-80
[8] = dose: 1600.0 mg/kg/injection, vehicle: saline with Tween-80
[9] = dose: 100.0 mg/kg/injection, vehicle: saline

With `Clc1ccc2nnnn2n1` the T/C [1] was 145 % of control, the T/C [2] was 139 % of control [8 of 10 alive on day 20] and the T/C [3] was 125 % of control [8 of 10 alive on day 20]. For the same compound, the survivor count [4] was 5 of 10 on day 20, the survivor count [5] was 5 of 10 on day 20 and the survivor count [6] was 0 of 10 on day 20.

In the case of `COc1cccc(-c2cc(=O)c3cccc(CC(=O)O)c3o2)c1`, the survivor count (dose: 200.0 mg/kg/injection, vehicle: saline) is reported as 0 of 5 on day 20.

`NS(=O)(=O)c1cc2c(cc1Cl)NC=NS2(=O)=O` was tested, and the T/C (dose: 600.0 mg/kg/injection, vehicle: Klucel (hydroxypropylcellulose) (HPC)) was 126 % of control.

In the case of `CCOC(=O)[C@]1(Br)CC[C@@]1(Br)C(=O)OCC`, the T/C [7] is reported as 140 % of control, the T/C [3] is reported as 142 [9 of 10 alive on day 20] and 146 % of control and the survivor count [8] is reported as 2 of 10 on day 20.

In the case of `NC(=S)Nc1cccc2ccccc12`, the T/C [2] is reported as 147 % of control [9 of 10 alive on day 20], the survivor count [3] is reported as 2 of 10 on day 20 and the survivor count [4] is reported as 0 of 10 on day 20.

With `CC[C@H]1CN2CCc3cc(OC)c(OC)cc3[C@@H]2C[C@@H]1C[C@H]1NCCc2cc(O)c(OC)cc21` the survivor count (dose: 48.0 mg/kg/injection, vehicle: suspension in saline) was 6 of 10 on day 20.

For `Nc1ccc(S(=O)(=O)c2ccc(N)cc2)cc1`, the T/C (dose: 56.0 mg/kg/injection, vehicle: saline with Tween-80) was 126 % of control.

In the case of `Cc1ccccc1N(CC1CO1)CC1CO1` (centres undefined), the T/C (dose: 25.0 mg/kg/injection, vehicle: saline) is reported as 130 % of control [9 of 10 alive on day 20], the T/C (dose: 50.0 mg/kg/injection, vehicle: saline) is reported as 133 % of control [8 of 10 alive on day 20] and the T/C [9] is reported as 130 % of control. For the same compound, the survivor count [5] was 4 of 10 on day 20, the T/C (dose: 400.0 mg/kg/injection, vehicle: saline) was 126 % of control and the survivor count [6] was 0 of 10 on day 20.

For `CC(C)(C)N1CC1CNC(=O)C(=O)NCC1CN1C(C)(C)C` (centres undefined), the T/C [7] was 62 [9 of 10 alive on day 20], 81, 103, 106 % of control, the T/C [1] was 54, 64, 98, 100 % of control and the survivor count [3] was 0 of 9 on day 20 and 4 of 10 on day 20.

`CC(=O)Oc1ccc[nH]c1=O` was tested, and the T/C [4] was 128 % of control and the survivor count [8] was 0 of 10 on day 20.

With `C(CSC1=NCCN1)CSC1=NCCN1` the T/C (dose: 12.5 mg/kg/injection, vehicle: saline) was 137 % of control and the T/C [9] was 138 % of control [9 of 10 alive].

In the case of `O=C1NCC(Br)C(=O)N1` (centres undefined), the T/C [7] is reported as 142 % of control, the T/C [1] is reported as 136 % of control and the T/C [2] is reported as 145 % of control. The T/C [4] was 133 % of control and the T/C [5] was 134 % of control [8 of 10 alive on day 20].
